The results in this text go back to article PMC8686075.

Results are given in words; binding and its absence hold for the method and conditions named. In cells and extracts the contact can be indirect. Some results given as binding are weak or reduced against the parent protein; the word gives no strength. Where a sequence is shown, tags or fusion partners need not be part of it.

One test addresses T1, FLAG-Rif1 C552 (mouse) (UniProt Q6PR54).
T1 sequence: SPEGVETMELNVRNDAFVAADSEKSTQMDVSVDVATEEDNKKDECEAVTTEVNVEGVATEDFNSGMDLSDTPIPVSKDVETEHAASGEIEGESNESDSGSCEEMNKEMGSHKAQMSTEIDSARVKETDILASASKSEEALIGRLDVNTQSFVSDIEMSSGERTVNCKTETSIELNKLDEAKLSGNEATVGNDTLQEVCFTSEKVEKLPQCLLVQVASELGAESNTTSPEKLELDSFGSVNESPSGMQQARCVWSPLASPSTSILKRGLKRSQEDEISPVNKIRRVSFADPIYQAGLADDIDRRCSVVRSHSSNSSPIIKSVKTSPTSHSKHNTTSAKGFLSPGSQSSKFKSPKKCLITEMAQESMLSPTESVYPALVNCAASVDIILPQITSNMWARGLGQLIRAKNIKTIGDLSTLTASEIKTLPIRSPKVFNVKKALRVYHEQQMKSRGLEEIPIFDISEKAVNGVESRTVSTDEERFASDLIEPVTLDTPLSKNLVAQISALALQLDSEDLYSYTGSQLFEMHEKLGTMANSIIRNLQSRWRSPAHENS
The test can be described thus: co-IP; lysates of transfected cells (0.5 mg protein, buffer A diluted to 150 mM NaCl, 1% NP-40) precipitated with anti-FLAG M2 agarose; washed 4 times with buffer A, 150 mM NaCl; immunoblot for endogenous Rif1.

Test [1] concerns the target endogenous Rif1 (mouse (endogenous in mouse ES cells)) (UniProt Q6PR54). Nature of the test: co-IP; lysates of transfected cells (0.5 mg protein, buffer A diluted to 150 mM NaCl, 1% NP-40) precipitated with 1 ug anti-Rif1N antibody and protein A/G Sepharose (endogenous Rif1); washed 4 times with buffer A, 150 mM NaCl; immunoblot for FLAG-tagged Rif1. (A western blot detects proteins with antibodies after separation by electrophoresis.)

In the case of “endogenous Rif1 (from UniProt Q6PR54 1-2419)”, in the test with FLAG-Rif1 C552 (mouse), the binding result is listed as “binds”.

B1: FLAG-Rif1 C552 (domain or fragment, UniProt Q6PR54 1868-2419)
chain: T1 sequence
With B1, in test [1], the binding result is given as “binds”.
